No constants are given. Whether binding was seen depends on the method and setting. In cells and extracts the contact can be indirect. Binding can be weak; no strength is given. Sequences can lack the tags named with a protein.
Biological target: T1, Methyltransferase-like 21C (METTL21C), FLAG-tagged (chicken) (UniProt E1BSL9)
T1 sequence: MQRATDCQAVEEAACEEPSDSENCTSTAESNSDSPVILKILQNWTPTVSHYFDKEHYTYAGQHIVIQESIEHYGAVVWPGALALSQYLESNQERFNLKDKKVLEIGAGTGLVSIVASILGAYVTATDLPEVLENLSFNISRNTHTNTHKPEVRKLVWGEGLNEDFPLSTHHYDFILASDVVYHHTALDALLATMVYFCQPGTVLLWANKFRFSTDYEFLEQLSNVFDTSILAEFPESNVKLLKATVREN
Assay: co-IP; HEK293T cells co-transfected with pCD513B-FLAG-METTL21C and pCD513B-HA-PHAX or pCD513B-HA-PHAX (K381); precipitated by HA and by FLAG, detected by blot

For “Phosphorylated adapter RNA export protein (PHAX), HA-tagged”, which binding is on record?
Its binding is “binds”.

— PMC10779018
